PubChem BioAssay AID651595 (National Center for Advancing Translational Sciences (NCATS), 2012)
Screen size: about 1,100 compounds; fewer than 10 were called active. Roughly 6% stayed inconclusive and do not appear here. Calls follow the shape of the dose curve; as a rule, active = well fitted cell-killing curve with a large enough effect; inconclusive = small, poorly fitted or top-dose-only effect; inactive = flat fitted curve, though single readings scatter. Some of the results follow.

experiment: qHTS of Nrf2 Activators: Hit Validation in Cytotox Assay; details: Cell viability counter-screen for Nrf2 activator hits; series mostly up to 46.1 µM; activity change, negative = cytotoxicity: at the top concentration;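 also: compound exposure lasted 24 hours before the ATP readout; 0% is about no effect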
Method in brief: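 Intracellular ATP measured with CellTiter-Glo luminescence (30 min, room temperature) as a viability read-out. Cells: AREc32_fluc, cultured overnight before 24 h compound exposure at 7 concentrations, 37 °C; activity here marks cytotoxicity.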

Structure (SMILES) | activity change, negative = cytotoxicity
Cc1cccc2cc3c(nc12)-c1ccccc1C3=O | inactive: -3.79%
Cc1ccc(C(=O)/C=C/c2ccc(-c3ccccc3[N+](=O)[O-])o2)cc1 | inactive: -3.82%
NS(=O)(=O)c1ccc(NC(=O)c2cc(-c3cccs3)nc3ccccc23)cc1 | inactive: 5.11%
CC1CN(c2sc(S(C)(=O)=O)nc2S(=O)(=O)c2ccc(Cl)cc2)CC(C)O1 (stereo not drawn) | inactive: 5.4%
c1ccc(-c2nnc(-c3ccccc3)o2)cc1 | inactive: -19%
CC(/C=N/Nc1nnc2c(n1)[nH]c1ccccc12)=C\c1ccco1 | inactive: 5.44%
Brc1ccccc1/C=N/Nc1ccccn1 | inactive: 2.41%
Cc1cc(O)cc2c1C(=O)/C(=C/c1ccco1)O2 | inactive: -8.07%
O=C(COC(=O)/C=C/c1ccco1)NCc1ccccc1Cl | inactive: 4.46%
Cc1ccc(S(=O)(=O)c2nc(S(C)(=O)=O)sc2N2CC(C)OC(C)C2)cc1 (stereo not drawn) | inactive: -1.79%
Fc1ccc2nncc(SCc3ccccc3Cl)c2c1 | inactive: 1.57%
Cc1cc(NC(=O)C2CCCC2)nc2c1c(=O)oc1ccccc12 | inactive: -13.8%
CC(C)N(C(=O)COC(=O)c1ccccc1C(=O)c1ccc(Cl)c([N+](=O)[O-])c1)C(C)C | inactive: 8.41%
Brc1ccc2nc(-c3ccco3)c(Cc3ccsc3)n2c1 | inactive: -1.38%
COc1cccc(C(=O)Nc2cc(Cl)c(O)c(Cl)c2)c1 | inactive: 3.69%
Cn1c(NC(=O)/C=C/c2ccccc2)cc(=O)n(C)c1=O | inactive: -3.69%
COC(=O)c1sc(NC(=O)c2ccco2)nc1C | inactive: -25.6%
CC(=O)c1cc2c(cc1NC(=O)CSc1nc3ccccc3o1)OCO2 | inactive: -2.64%
N/C(=N\OC(=O)c1cc(Cl)ccc1Cl)c1cccnc1 | inactive: -4.62%
CCOc1ccccc1NS(=O)(=O)c1c(C(=O)OC)sc2cccc(F)c12 | inactive: -1.18%
Cc1cc(C)c(C#N)c(SCC(=O)c2cccs2)n1 | inactive: 3.09%
O=C(N/N=C/C(Br)=C/c1ccccc1)c1ccc([N+](=O)[O-])cc1 | inactive: -1.16%
Cc1ncc(N=Nc2ccccc2)c(-c2ccccc2)n1 | inactive: 8.88%
CCSc1ncc(Cl)c(C(=O)Nc2ccccc2)n1 | inactive: 1.02%

Structure (SMILES) | activity change, negative = cytotoxicity
COc1ccccc1NC(=O)c1cnc(SCC(=O)NCCc2ccccc2)n(C)c1=O | inactive: -18.2%
O=C(CCCCCCC(=O)Nc1ccccc1)NO | inactive: -11.5%
Cc1cc(SCC(=O)N/N=C/c2ccco2)nc2ccccc12 | inactive: -1.85%
Cc1cccc(CC2S/C(=N/N=C/c3ccco3)NC2=O)c1 (stereo not drawn) | inactive: 5.65%
N#C/C(=C\c1c(Oc2ccc(Cl)cc2)nc2ccccn2c1=O)C(=O)NC1CCS(=O)(=O)C1 (stereo not drawn) | inactive: 6.87%
CCn1ncc(Br)c1C(=O)Nc1cc([N+](=O)[O-])ccc1C | inactive: 1.52%
CCOC(=O)c1ccccc1N/C=C/C(=O)c1cccs1 | inactive: -4.29%
O=C(/C=C/c1ccco1)Nc1ccc2nn(-c3ccccc3)nc2c1 | inactive: -7.5%
Cc1cccc(-c2n[nH]c(=S)n2/N=C/C=C/c2ccco2)c1 | inactive: 4.91%
O=C(Nc1nnc(-c2ccccc2F)s1)Nc1ccccc1F | inactive: 2.4%
Cc1ccc(S(=O)(=O)c2nc(S(C)(=O)=O)sc2N2CCOCC2)cc1 | inactive: 10.6%
CC(C)(C)SCCNC(=O)/C=C/c1cccc([N+](=O)[O-])c1 | inactive: -0.617%
Cn1c(SCC(=O)N/N=C/C=C\c2ccccc2[N+](=O)[O-])nc2ccccc21 | inactive: -4.27%
COc1ccc(NC(=O)c2ccc([N+](=O)[O-])s2)c([N+](=O)[O-])c1 | inactive: -0.981%
Clc1cccc(Cc2c(-c3ccccc3)nc3c4ccccc4ccn23)c1 | inactive: -6.37%
O=C(Nc1ccc2c(c1)C(=O)NC2=O)c1cccc(C(F)(F)F)c1 | inactive: -0.226%
COc1cc2c(cc1NC(=O)c1ccccc1F)CCCC2 | inactive: 10.5%
COc1ccc(-c2csc3nc(-c4cccnc4)nc(Cl)c23)cc1OC | inactive: -17.4%
COC(=O)c1sccc1NC(=O)c1ccccc1 | inactive: 4.25%
Cc1cc(NC(=O)Nc2cc(Cl)sc2Cl)no1 | inactive: 8.37%
CC(C)c1ccc(NC(=O)c2sccc2-n2cccc2)cc1 | inactive: -13.6%
CC(=O)Oc1c(-c2ccco2)oc2ccccc2c1=O | inactive: -19.7%
Cc1ccc(N=C2NC(=O)/C(=C/C=C/c3ccco3)S2)cc1 | inactive: -7.89%
COc1ccc(/C(N)=N/OC(=O)c2cccc([N+](=O)[O-])c2)cc1 | inactive: -1.04%

Structure (SMILES) | activity change, negative = cytotoxicity
O=C1c2cccc3cccc(c23)C(=O)N1CCCN(C(=O)c1cccs1)c1cccc(F)c1 | inactive: 10.7%
Cc1ccccc1NC(=O)/C(C#N)=C/c1ccsc1 | inactive: 0.178%
N=c1oc2ccccc2cc1-c1nc(-c2ccccc2)cs1 | inactive: -19%
Cn1cc([N+](=O)[O-])c(C(=O)Nc2ccc(-c3nc4ccccc4o3)cc2)n1 | inactive: 6.82%
COc1ccc(Cl)cc1NC(=O)c1cc(-c2ccccc2O)n[nH]1 | inactive: -4.67%
CCOc1ncccc1-c1nc(-c2cccs2)no1 | inactive: -3.05%
Cc1ccc(C)c(/C=N/Nc2ccccn2)c1 | inactive: 9.8%
Clc1ccc2c(NCc3ccccn3)ncnc2c1 | inactive: 0.542%
CCCS(=O)(=O)c1nc(S(=O)(=O)c2ccc(C)cc2)c(N2CC(C)OC(C)C2)s1 (stereo not drawn) | inactive: -6.55%
NC(=O)c1nc(Nc2ccccc2)sc1NC(=O)c1c(F)cccc1F | inactive: 10.2%
CC1Sc2n(c3ccccc3[n+]2C)N=C1c1ccccc1 (stereo not drawn) | inactive: -20.4%
O=C(Nc1nc2ccccc2[nH]1)c1cccc([N+](=O)[O-])c1 | inactive: 0.401%
Fc1ccc2cc(-c3ccsc3)ncc2c1 | inactive: 12.9%
O=C(CSc1nccc(-c2cccs2)n1)Nc1ccc(F)c(Cl)c1 | inactive: 11.3%
O=c1oc(CCO)cc2ccc(C#Cc3ccsc3)cc12 | inactive: -1.14%
O=C(Nc1ccc2c(c1)C(=O)NC2=O)c1ccccc1 | inactive: 0.51%
CC(/C=C(\NC(=O)c1ccccc1)C(=O)N=Nc1c(O)[nH]c2ccc(C)cc12)=C\c1ccccc1 | inactive: 5.27%
CSc1nsc(SC)c1C(=O)Nc1ccc(C)cc1 | inactive: 2.05%
O=C(Oc1cccc2c(O)cccc12)c1ccccc1Cl | inactive: -1.31%
O=C(Oc1cccc(-c2cnc3ccccc3n2)c1)c1ccco1 | inactive: -1.91%
O=C(/C(C=Nc1ccc(F)cc1)=C(/O)c1ccco1)C(F)(F)F | inactive: 0.0691%
c1coc(CNc2ncnc3c2oc2ccccc23)c1 | inactive: 5.56%
S=c1[nH]nc(-c2ccc(Cl)cc2)n1/N=C/C=C/c1ccco1 | inactive: -3.1%
Cc1ccc(NC(=O)CC2S/C(=N/N=C/c3ccco3)NC2=O)cc1Cl (stereo not drawn) | inactive: 5.34%

Structure (SMILES) | activity change, negative = cytotoxicity
CC(NC(=O)/C=C/c1ccco1)c1nc2ccccc2n1Cc1c(Cl)cccc1Cl (stereo not drawn) | inactive: -4.44%
O=C(CSc1cccc[n+]1[O-])Nc1cc([N+](=O)[O-])ccc1Cl | inactive: -3.2%
CCn1c(=N)n(CC(=O)c2cccc([N+](=O)[O-])c2)c2ccccc21 | inactive: 4.32%
O=C(/C=C/c1cccc([N+](=O)[O-])c1)n1cnc2ccccc21 | inactive: -7.38%
CC1(O)c2ccccc2C(=O)N1CCc1ccccc1F (stereo not drawn) | inactive: 3.61%
Cn1c(/C(C#N)=C(\O)c2cc(Cl)sc2Cl)nc2ccccc21 | inactive: -17.8%
S=c1[nH]nc(-c2ccco2)n1/N=C/C(Cl)=C/c1ccccc1 | inactive: 1.01%
COc1ccc(Sc2cnn(-c3ccccc3)c(=O)c2Cl)cc1 | inactive: 13.3%
COc1ccc(C2CC(c3cccs3)=Nc3ccccc3S2)cc1OC (stereo not drawn) | inactive: -3.75%
COc1ccccc1NC(=O)c1cc(Cl)nc2ccccc12 | inactive: 5.88%
O=C(Nc1nc2ccc(F)cc2s1)c1ccc([N+](=O)[O-])o1 | inactive: -20.4%
COC(=O)c1sccc1NC(=O)c1cccc(Cl)c1 | inactive: 6.17%
Cc1cc(=O)oc2c(C(=O)/C=C\c3cccs3)c(O)ccc12 | inactive: -9.76%
C/C(=N\NC(=O)COc1ccccc1[N+](=O)[O-])c1cccs1 | inactive: 3.87%
O=[N+]([O-])c1cccc(/C=C/c2ccccn2)c1 | inactive: -10.4%
CSc1nnc(-c2ccco2)c(-c2ccco2)n1 | inactive: 6.93%
COc1cccc(NC(=O)c2nc(SC)ncc2Cl)c1 | inactive: 9.63%
COc1ccc2oc3cc(Cl)ccc3c(=O)c2c1 | inactive: -1.78%
O=C(CCN1C(=O)/C(=C\c2ccccc2)SC1=S)N1CCCCC1 | inactive: 1.89%
COc1ccc(C2NC(=S)NC3=C2CCCC3=C2SCCS2)cc1 (stereo not drawn) | inactive: -5.66%
O=C(NC(=S)Nc1cccc2cccnc12)c1cccs1 | inactive: 0.375%
CC(=O)c1cccc(NC(=O)c2cc(Cl)sc2Cl)c1 | inactive: 2.61%
Clc1nc(-c2ccccc2)cc(-c2ccccc2)n1 | inactive: 2.29%
CC1(C)C2C/C(=N\O)C(C)(/[N+]([O-])=C/c3cccc([N+](=O)[O-])c3)CC21 (stereo not drawn) | inactive: -4.15%

Quoted from the listing:
Value for CC(C)(C)SCCNC(=O)/C=C/c1cccc([N+](=O)[O-])c1 under activity change, negative = cytotoxicity: inactive: -0.617%
Value for O=C(CSc1nccc(-c2cccs2)n1)Nc1ccc(F)c(Cl)c1 under activity change, negative = cytotoxicity: inactive: 11.3%

The list goes on:

Structure (SMILES) | activity change, negative = cytotoxicity
c1ccc(CSc2nccc(-c3ccco3)n2)cc1 | inactive: -0.113%
CS/C(=C\C(=O)c1ccco1)Nc1ccccc1Cl | inactive: 1.08%
Cc1cc(Br)ccc1NC(=O)CNC(=O)Cn1ncc(Cl)c(Cl)c1=O | inactive: 5.51%
COc1cccc(-c2nc3n(n2)CCc2ccccc2-3)c1 | inactive: -3.83%
CCn1nc(C)c(Br)c1-c1nc(-c2cccc(C)c2)no1 | inactive: 7.1%
O=C(CSc1ccccn1)N/N=C/c1ccccc1[N+](=O)[O-] | inactive: 2.77%
Clc1ccccc1C=NNc1ccccn1 | inactive: 0.451%
N/C(=N\OC(=O)c1ccccc1Cl)c1ccncc1 | inactive: 9.47%
COC(=O)c1sccc1NC(=O)c1cccc(F)c1 | inactive: -0.474%
CCOC(=O)c1c(NC(=O)/C=C/c2ccc(C)o2)sc(C)c1C | inactive: 4.84%
N#Cc1c(-c2ccccc2)cc(-c2ccccc2)[nH]c1=O | inactive: 5.05%
Clc1cccc(Cl)c1/C=N\Nc1nccs1 | inactive: 8.34%
Cc1ccc(/C=C/C(=O)OCC(=O)Nc2cccnc2Cl)o1 | inactive: 1.37%
O=C(CSc1nnc2c(n1)[nH]c1ccccc12)NCc1ccco1 | inactive: -4.51%
CCn1c(NC(=O)c2cccs2)nc2ccccc21 | inactive: -0.196%
O=C(CSc1ccc(-c2ccco2)nn1)NCc1ccccc1 | inactive: 3.76%
O=C(/C=C/c1ccco1)Nc1ccccc1N1CCCCC1 | inactive: 1.88%
Cc1ccnc(SCC(=O)c2ccc(Br)cc2)c1C#N | inactive: -1.45%
COc1cc(/C=C2/NC(=O)N(c3cccc(Cl)c3)C2=O)ccc1O | inactive: -0.822%
C/C(=N\Nc1ccccn1)c1ccc(Br)s1 | inactive: 2.51%
Cn1c(/C=C/c2cccc(Br)c2)nc2ccccc2c1=O | inactive: -20.8%
Cc1nn2c3c(cnc2c1-c1ccccc1)C(=O)CC(c1ccco1)C3 (stereo not drawn) | inactive: -7.42%
